These are yes or no findings as the source states them, for the method shown. In cells and extracts the contact can be indirect. A yes stands for co-enrichment or nearness to the bait. Other partners may have been found.
B1: Mre11 (protein, UniProt Q61216 1-706)
chain: MSPTDPLDDEDTFKILVATDIHLGFMEKDAVRGNDTFVTFDEILRLALENEVDFILLGGDLFHENKPSRKTLHSCLELLRKYCMGDRPVQFEVISDQSVNFGFSKFPWVNYQDGNLNISIPVFSIHGNHDDPTGADALCALDVLSCAGFVNHFGRSMSVEKVDISPVLLQKGSTKLALYGLGSIPDERLYRMFVNKKVTMLRPKEDENSWFNLFVIHQNRSKHGNTNFIPEQFLDDFIDLVIWGHEHECKIGPIKNEQQLFYVSQPGSSVVTSLSPGEAVKKHVGLLRIKGRKMNMQKLPLRTVRRFFIEDVVLANHPNLFNPDNPKVTQAIQSFCLEKIEEMLDSAERERLGNPQQPGKPLIRLRVDYSGGFEPFNVLRFSQKFVDRVANPKDVIHFFRHREQKGKTGEEINFGMLITKPASEGATLRVEDLVKQYFQTAEKNVQLSLLTERGMGEAVQEFVDKEEKDAIEELVKYQLEKTQRFLKERHIDALEDKIDEEVRRFRESRQRNTNEEDDEVREAMSRARALRSQSETSTSAFSAEDLSFDTSEQTANDSDDSLSAVPSRGRGRGRGRRGARGQSSAPRGGSQRGRDTGLEITTRGRSSKATSSTSRNMSIIDAFRSTRQQPSRNVAPKNYSETIEVDDSDEDDIFPTNSRADQRWSGTTSSKRMSQSQTAKGVDFESDEDDDDDPFMSSSCPRRNRR

By UniProt entry, the sequences of proteins in these tests, tags left out.
UniProt P40201: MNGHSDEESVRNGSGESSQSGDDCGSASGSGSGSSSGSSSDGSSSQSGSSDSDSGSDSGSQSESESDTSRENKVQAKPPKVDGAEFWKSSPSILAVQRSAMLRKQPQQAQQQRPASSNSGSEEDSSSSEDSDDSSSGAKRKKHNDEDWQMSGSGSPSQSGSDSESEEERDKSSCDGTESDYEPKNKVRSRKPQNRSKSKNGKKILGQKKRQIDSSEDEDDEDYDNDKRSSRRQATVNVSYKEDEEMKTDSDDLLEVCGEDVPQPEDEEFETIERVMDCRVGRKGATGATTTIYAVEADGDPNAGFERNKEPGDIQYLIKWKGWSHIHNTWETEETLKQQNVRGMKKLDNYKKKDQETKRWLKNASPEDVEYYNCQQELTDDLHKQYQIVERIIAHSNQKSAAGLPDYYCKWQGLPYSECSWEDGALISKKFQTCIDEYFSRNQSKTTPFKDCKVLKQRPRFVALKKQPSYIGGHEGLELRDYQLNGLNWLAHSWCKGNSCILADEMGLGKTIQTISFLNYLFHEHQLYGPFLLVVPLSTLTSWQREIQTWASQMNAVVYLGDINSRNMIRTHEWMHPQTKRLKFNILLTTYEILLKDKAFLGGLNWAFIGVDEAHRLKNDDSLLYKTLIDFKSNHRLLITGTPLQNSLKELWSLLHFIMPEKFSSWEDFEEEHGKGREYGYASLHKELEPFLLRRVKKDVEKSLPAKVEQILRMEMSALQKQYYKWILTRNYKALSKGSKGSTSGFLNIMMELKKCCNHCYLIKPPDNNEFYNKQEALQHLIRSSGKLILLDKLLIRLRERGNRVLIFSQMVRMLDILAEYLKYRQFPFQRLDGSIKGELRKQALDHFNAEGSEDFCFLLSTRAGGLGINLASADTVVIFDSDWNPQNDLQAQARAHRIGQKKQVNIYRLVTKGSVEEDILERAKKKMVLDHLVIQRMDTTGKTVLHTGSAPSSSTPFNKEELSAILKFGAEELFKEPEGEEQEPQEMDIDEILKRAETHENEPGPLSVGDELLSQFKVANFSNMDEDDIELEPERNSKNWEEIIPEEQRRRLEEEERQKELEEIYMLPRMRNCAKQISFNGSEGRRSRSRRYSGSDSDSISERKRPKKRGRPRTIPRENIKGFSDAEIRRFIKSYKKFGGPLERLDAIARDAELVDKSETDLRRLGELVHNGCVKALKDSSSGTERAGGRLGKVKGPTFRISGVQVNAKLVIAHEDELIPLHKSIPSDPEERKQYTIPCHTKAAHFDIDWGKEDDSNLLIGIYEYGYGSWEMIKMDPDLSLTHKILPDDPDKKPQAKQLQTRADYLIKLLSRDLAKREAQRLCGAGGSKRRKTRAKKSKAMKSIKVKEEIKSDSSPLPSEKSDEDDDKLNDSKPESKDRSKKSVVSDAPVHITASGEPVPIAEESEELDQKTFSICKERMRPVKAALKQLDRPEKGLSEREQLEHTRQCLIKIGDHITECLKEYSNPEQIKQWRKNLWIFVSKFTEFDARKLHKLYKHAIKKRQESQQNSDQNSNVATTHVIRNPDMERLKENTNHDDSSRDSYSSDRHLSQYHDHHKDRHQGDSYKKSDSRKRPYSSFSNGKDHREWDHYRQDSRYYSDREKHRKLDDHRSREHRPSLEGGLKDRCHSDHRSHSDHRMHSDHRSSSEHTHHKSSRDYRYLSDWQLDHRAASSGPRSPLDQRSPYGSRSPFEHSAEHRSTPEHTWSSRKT
UniProt O88554: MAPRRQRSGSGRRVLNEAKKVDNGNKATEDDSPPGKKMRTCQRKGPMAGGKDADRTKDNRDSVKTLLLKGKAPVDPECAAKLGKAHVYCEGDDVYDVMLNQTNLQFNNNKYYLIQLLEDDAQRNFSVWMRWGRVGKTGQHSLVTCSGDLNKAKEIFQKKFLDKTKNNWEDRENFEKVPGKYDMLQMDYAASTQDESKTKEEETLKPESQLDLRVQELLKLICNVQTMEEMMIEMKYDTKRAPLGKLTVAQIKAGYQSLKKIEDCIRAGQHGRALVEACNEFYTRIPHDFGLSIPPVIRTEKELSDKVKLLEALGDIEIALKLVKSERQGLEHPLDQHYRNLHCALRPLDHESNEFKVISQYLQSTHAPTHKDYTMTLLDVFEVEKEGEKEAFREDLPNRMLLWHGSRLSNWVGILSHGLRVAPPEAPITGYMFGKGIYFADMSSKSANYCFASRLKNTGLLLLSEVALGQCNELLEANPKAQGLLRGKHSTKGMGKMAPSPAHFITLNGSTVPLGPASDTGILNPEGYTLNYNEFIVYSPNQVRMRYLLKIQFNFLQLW
UniProt P11103: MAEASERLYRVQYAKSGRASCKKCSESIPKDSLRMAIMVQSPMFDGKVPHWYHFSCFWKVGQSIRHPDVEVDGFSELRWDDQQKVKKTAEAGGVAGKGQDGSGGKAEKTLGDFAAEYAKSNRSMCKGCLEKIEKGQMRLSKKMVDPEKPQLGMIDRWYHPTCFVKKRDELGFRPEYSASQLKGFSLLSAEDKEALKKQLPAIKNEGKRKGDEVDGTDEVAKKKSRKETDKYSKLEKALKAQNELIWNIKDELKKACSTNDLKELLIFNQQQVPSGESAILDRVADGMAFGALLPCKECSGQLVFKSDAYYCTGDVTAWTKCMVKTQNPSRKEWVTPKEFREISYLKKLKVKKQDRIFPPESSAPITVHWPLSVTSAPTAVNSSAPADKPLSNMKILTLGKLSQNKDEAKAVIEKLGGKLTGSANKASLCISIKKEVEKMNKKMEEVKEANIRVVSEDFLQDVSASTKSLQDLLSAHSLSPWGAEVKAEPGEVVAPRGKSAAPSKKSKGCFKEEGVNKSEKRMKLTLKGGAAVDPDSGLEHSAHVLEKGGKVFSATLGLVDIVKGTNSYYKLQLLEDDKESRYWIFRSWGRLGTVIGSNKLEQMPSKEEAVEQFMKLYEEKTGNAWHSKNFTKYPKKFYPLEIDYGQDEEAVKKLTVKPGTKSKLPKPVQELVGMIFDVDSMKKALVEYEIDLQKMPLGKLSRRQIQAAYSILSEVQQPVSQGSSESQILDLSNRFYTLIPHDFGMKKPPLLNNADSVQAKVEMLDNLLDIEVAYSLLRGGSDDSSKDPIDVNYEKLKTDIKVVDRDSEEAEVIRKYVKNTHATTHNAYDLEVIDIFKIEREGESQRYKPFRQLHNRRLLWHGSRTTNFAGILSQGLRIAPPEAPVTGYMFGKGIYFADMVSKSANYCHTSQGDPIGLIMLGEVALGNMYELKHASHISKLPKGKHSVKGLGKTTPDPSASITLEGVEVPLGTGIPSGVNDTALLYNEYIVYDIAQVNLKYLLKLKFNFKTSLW
UniProt P70388: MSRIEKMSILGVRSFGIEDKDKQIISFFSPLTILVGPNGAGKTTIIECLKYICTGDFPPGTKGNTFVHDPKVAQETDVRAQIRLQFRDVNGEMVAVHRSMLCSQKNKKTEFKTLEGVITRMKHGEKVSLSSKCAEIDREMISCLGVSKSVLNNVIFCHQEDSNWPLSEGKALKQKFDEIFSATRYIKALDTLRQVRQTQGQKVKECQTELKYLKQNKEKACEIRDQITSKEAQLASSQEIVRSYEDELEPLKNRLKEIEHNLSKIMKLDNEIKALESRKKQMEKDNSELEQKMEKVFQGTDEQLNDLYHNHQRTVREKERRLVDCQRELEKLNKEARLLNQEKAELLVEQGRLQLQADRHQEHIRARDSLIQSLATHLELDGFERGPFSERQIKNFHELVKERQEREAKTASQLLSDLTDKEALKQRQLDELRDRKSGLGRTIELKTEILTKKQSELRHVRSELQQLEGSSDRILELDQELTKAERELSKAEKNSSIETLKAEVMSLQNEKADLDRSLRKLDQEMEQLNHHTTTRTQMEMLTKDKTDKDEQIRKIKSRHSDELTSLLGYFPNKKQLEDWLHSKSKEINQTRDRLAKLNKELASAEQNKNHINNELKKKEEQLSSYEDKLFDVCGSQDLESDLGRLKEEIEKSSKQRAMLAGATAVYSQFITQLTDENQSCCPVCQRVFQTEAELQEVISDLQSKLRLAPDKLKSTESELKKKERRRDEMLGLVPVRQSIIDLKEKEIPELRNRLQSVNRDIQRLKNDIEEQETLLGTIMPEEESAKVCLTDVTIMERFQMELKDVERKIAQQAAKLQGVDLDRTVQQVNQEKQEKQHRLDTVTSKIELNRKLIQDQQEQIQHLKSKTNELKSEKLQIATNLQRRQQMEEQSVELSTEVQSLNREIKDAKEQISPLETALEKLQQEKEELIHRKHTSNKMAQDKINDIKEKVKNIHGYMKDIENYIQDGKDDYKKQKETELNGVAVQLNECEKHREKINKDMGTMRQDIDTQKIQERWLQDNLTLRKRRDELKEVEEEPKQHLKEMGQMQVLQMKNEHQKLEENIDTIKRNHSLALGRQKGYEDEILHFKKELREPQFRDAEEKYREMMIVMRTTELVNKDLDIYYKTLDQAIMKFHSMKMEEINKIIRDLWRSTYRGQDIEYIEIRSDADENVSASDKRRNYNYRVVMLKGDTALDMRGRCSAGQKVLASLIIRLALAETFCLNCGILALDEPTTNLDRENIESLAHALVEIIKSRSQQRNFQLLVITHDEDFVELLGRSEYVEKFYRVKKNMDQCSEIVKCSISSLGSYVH
UniProt Q64511: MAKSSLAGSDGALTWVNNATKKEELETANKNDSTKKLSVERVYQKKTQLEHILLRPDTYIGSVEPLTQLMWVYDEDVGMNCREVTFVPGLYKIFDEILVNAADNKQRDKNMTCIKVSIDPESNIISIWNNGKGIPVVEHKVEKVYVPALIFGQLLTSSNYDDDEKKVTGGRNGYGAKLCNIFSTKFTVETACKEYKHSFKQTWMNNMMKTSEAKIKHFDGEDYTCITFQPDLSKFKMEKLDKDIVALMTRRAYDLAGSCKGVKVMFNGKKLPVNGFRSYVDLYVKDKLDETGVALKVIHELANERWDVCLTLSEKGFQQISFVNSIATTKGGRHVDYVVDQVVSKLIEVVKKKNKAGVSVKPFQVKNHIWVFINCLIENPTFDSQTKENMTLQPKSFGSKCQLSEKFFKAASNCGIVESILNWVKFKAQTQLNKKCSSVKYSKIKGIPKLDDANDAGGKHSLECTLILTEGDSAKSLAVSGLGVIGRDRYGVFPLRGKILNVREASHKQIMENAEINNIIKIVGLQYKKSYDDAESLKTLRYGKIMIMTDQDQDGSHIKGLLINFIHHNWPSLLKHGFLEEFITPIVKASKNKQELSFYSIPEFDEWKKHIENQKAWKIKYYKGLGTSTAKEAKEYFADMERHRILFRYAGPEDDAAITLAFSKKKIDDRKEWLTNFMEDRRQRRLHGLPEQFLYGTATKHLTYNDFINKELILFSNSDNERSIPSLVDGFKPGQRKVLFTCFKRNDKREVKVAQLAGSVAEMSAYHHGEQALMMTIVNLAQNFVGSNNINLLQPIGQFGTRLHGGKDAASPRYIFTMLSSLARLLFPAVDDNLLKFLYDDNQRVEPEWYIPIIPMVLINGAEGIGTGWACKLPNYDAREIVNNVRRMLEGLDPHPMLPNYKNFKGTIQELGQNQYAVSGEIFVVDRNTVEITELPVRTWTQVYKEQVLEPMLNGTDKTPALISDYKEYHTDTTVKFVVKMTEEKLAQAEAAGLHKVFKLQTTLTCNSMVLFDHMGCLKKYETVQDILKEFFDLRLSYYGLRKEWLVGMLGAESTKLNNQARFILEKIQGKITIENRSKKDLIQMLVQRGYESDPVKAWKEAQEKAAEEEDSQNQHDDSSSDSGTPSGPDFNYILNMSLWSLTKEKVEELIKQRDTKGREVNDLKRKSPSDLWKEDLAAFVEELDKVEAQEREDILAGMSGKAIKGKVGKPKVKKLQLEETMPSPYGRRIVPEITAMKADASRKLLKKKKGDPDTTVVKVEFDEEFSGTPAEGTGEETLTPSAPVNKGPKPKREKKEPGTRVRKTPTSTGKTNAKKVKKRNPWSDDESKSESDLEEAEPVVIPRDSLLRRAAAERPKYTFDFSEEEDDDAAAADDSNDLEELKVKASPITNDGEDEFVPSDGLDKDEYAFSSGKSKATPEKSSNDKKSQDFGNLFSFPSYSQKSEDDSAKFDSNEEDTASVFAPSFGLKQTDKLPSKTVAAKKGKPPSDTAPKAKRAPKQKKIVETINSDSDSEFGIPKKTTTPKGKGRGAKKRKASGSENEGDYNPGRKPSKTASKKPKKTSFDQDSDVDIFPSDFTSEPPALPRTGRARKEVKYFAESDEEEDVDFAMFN

Molecular target: Chd1-Flag (knock-in) (mouse) (UniProt P40201)
Assay: affinity purification with mass spectrometry

For “Parp2 (from UniProt O88554 1-559) (enzyme)”, which binding is on record?
The binding was “binds”.

For “Parp1 (from UniProt P11103 1-1013) (enzyme)”, which binding is on record?
Its binding is “binds”.

“histone variant H2A.X (from UniProt P27661 1-143)” was tested. Which binding did it give?
Its binding is “binds”.

Rad50 (from UniProt P70388 1-1312) was tested. Which binding did it give?
Its binding is “binds”.

“topoisomerase 2β (Top2β) (from UniProt Q64511 1-1612) (enzyme)” was tested. Which binding did it give?
Its binding is “binds”.

For B1, which binding is on record?
The binding was “binds”.
